{"sequences": {"note": "Chains of the proteins cited; added tags and fusions are not shown. Lines headed by an entry give the natural chain unless they say otherwise; changes in a name come on top. Residues count along the entry.", "UniProt Q86VV8": "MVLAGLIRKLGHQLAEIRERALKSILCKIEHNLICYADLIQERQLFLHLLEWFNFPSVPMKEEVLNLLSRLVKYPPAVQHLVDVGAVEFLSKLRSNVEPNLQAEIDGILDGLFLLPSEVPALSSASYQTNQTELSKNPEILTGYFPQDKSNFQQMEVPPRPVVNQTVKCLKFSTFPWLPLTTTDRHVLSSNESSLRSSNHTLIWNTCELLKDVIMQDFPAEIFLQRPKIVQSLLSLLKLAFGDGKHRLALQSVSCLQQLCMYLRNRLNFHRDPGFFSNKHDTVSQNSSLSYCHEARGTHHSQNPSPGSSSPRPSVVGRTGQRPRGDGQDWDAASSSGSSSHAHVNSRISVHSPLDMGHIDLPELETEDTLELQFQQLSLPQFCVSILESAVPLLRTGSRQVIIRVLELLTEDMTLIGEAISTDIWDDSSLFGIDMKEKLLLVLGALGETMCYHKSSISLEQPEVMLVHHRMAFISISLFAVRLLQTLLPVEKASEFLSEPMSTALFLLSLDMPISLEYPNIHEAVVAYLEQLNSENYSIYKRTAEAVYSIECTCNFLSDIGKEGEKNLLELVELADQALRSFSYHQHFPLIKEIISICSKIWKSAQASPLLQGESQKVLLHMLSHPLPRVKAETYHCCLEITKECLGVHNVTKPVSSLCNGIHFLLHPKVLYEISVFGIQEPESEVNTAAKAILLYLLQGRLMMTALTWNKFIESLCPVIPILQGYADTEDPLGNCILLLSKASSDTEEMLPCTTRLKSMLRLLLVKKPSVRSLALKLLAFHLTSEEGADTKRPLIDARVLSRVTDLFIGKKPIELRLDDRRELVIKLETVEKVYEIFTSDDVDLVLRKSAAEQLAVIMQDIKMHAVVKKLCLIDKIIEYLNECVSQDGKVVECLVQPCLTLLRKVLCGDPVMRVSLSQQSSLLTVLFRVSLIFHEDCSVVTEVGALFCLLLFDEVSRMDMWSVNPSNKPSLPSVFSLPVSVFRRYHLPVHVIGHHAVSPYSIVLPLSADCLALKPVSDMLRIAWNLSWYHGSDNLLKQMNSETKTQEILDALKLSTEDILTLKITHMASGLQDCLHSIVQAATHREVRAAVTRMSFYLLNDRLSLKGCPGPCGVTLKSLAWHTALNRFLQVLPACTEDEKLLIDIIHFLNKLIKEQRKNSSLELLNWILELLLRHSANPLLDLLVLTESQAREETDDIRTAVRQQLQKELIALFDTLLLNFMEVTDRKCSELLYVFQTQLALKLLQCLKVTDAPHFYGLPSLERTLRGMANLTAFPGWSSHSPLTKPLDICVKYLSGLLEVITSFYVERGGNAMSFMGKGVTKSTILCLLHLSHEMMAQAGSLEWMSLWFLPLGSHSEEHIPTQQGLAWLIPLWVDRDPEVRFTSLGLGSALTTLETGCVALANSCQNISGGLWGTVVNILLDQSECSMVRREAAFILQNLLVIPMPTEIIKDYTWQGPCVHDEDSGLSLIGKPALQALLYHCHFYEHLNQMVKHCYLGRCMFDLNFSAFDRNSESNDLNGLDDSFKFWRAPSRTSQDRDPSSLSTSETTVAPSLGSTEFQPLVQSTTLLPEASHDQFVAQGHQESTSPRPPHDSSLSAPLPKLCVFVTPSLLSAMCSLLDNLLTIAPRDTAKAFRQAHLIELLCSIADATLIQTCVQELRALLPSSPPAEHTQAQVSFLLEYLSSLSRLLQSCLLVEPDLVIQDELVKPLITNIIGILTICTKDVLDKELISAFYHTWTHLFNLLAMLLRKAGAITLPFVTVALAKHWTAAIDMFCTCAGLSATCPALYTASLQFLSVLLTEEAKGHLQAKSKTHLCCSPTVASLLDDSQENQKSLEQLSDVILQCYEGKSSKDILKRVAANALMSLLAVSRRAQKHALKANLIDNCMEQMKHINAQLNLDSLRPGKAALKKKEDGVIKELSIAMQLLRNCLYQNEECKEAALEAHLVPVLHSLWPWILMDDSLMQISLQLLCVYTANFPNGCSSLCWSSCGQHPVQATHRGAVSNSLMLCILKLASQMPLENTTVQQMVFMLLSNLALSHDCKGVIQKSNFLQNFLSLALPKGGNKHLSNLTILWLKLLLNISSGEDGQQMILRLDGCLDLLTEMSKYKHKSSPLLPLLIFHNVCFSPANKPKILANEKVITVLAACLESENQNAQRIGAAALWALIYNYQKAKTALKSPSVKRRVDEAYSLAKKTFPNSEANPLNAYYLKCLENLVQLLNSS", "UniProt O00442, 340-366": "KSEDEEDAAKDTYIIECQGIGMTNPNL", "UniProt Q8IXW5, 160-187": "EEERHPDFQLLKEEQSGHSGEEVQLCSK", "UniProt P13489, 65-86": "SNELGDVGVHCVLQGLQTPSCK", "UniProt O75150, whole entry, looked up": "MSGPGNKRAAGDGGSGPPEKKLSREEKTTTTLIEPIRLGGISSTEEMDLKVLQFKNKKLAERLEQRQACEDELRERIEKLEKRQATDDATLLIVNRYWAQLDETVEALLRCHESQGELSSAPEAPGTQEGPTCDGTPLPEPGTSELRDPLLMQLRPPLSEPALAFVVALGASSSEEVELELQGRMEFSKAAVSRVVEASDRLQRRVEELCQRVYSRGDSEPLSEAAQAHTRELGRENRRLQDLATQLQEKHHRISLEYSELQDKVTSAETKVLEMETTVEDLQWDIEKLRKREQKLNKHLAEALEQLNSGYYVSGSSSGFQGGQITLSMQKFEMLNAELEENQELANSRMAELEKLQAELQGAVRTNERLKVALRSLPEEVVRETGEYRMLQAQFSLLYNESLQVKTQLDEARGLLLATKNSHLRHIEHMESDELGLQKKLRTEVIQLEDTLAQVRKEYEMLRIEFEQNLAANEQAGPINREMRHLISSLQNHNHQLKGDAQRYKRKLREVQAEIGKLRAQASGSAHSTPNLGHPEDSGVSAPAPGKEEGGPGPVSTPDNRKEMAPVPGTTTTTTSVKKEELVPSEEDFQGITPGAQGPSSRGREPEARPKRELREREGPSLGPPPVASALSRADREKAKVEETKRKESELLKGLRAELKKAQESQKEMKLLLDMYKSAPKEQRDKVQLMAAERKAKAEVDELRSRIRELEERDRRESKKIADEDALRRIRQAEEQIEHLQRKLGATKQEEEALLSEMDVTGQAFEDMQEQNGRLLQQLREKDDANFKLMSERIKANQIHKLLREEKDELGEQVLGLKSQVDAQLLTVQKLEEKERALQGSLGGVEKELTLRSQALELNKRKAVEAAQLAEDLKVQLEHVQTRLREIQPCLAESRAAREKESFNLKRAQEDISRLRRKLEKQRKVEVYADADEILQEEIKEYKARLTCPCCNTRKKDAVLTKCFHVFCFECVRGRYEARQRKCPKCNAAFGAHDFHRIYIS", "UniProt Q96ER3": "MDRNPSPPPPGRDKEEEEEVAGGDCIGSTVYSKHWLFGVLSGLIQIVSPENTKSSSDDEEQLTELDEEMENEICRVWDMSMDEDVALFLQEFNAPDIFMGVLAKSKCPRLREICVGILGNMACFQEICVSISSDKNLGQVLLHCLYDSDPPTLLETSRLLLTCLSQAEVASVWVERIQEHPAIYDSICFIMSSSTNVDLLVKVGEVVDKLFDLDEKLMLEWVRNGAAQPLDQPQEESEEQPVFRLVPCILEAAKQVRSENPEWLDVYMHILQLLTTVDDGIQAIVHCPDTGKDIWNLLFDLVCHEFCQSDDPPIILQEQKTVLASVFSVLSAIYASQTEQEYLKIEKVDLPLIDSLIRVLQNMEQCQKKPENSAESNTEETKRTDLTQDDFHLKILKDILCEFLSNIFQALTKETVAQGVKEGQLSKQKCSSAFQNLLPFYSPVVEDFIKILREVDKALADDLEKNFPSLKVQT", "UniProt Q9P2E9": "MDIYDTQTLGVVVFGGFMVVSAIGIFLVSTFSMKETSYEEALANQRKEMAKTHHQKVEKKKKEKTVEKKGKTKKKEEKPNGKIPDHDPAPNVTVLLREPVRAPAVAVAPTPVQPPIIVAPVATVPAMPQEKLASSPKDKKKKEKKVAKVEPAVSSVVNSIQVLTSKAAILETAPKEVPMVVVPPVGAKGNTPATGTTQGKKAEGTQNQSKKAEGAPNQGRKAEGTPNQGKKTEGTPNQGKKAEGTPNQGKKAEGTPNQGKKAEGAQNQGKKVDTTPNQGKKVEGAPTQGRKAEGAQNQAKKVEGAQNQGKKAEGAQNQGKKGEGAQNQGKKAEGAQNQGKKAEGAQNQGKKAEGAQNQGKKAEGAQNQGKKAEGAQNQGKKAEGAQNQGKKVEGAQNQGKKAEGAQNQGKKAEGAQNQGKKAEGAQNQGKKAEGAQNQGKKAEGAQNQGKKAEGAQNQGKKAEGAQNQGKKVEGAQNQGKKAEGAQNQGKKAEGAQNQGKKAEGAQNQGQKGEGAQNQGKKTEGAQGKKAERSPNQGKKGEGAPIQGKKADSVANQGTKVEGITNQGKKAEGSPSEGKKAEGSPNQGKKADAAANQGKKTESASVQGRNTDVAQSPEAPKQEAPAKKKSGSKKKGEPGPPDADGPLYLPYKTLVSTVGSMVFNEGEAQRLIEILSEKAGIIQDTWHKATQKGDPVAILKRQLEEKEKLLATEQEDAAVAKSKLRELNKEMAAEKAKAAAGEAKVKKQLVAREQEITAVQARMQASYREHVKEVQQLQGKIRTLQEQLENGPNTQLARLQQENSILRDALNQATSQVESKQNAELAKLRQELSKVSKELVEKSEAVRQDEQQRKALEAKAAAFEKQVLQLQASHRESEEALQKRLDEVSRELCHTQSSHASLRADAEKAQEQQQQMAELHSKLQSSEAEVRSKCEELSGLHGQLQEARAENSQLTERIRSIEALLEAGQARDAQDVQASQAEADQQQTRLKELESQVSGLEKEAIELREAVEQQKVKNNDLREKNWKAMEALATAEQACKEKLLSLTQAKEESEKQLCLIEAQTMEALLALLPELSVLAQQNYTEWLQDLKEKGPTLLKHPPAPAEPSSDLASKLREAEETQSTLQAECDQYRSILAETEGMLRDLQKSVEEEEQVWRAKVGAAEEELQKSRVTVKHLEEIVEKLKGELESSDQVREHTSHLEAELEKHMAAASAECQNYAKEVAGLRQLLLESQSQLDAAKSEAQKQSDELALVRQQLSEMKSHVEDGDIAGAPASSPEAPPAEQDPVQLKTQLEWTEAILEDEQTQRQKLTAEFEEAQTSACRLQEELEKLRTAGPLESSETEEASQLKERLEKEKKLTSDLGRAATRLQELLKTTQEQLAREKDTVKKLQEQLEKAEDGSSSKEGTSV", "UniProt P10155": "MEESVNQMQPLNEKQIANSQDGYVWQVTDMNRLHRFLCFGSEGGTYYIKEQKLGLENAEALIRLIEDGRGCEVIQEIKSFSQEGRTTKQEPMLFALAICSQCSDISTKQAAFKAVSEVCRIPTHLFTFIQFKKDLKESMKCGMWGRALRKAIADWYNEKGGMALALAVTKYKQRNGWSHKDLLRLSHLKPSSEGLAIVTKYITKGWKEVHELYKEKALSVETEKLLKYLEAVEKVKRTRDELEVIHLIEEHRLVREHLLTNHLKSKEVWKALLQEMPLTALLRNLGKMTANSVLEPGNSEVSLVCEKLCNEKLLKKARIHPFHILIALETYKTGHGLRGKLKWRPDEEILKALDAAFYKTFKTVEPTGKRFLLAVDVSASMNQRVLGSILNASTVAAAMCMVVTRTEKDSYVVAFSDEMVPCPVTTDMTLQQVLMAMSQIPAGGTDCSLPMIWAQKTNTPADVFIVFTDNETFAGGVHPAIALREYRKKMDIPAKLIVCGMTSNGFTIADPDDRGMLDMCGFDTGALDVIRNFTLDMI", "UniProt P23921, 657-677": "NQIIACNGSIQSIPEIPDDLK", "UniProt Q96T51": "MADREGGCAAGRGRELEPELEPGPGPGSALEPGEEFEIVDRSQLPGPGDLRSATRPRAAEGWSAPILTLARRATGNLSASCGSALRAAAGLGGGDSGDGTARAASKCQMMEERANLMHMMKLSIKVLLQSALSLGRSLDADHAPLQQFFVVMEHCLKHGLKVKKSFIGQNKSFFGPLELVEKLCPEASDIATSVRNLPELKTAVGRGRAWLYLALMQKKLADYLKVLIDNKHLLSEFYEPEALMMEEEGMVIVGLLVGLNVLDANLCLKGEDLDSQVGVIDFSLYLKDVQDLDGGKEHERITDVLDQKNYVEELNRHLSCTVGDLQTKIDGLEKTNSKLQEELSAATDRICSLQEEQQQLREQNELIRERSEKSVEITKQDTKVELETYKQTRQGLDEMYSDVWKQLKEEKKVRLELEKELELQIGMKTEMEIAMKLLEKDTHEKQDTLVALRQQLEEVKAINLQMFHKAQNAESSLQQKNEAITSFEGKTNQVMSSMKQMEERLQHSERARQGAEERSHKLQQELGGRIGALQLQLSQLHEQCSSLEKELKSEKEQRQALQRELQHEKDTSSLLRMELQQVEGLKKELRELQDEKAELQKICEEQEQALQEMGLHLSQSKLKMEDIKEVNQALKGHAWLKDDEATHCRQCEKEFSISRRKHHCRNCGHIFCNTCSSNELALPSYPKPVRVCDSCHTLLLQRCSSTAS"}, "source": "the supplement of paper PMC11732987", "about": "“Enantioselective OTUD7B fragment discovery through chemoproteomics screening and high-throughput optimisation” (Communications Chemistry, 2025)", "key": {"[1]": {"compound": "ClCC(=O)N[C@@H]1CCCc2ccccc12", "assay": "log2 mean competition ratio of IA-DTB cysteine labelling (DMSO/compound) (log2 ratio); higher = stronger cysteine engagement by compound", "details": "treatment time: 4 h, cell line lysate: HEK293T", "protocol": "(§1)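 IA-DTB competitive cysteine chemoproteomics in HEK293T RIPA lysate. Lysates were treated with compound 29 or 30 at 50 or 200 µM for 4 h, then IA-DTB (500 µM, 1 h), trypsin-digested, NeutrAvidin-enriched and analysed by diaPASEF. Competition ratio = intensity DMSO / intensity compound (n=4 treated, n=64 DMSO); binding: mean log2 CR ≥ 1 and p ≤ 0.05 plus QC filters. Target is the cysteine site.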"}, "[2]": {"compound": "ClCC(=O)N[C@H]1CCCc2ccccc12", "assay": "log2 mean competition ratio of IA-DTB cysteine labelling (DMSO/compound) (log2 ratio); higher = stronger cysteine engagement by compound", "details": "treatment time: 4 h, cell line lysate: HEK293T", "protocol": "as §1"}}, "note": "Some of the results follow. The data scatter; read single values as rough."}
{"target": "ROCK2 C607 (UniProt O75116)", "values": [{"measurement": "log2 mean competition ratio", "setting": "[1]; 50 µM", "result": -0.155}, {"measurement": "log2 mean competition ratio", "setting": "[1]; 200 µM", "result": -0.107}, {"measurement": "log2 mean competition ratio", "setting": "[2]; 50 µM", "result": 0.00578}, {"measurement": "log2 mean competition ratio", "setting": "[2]; 200 µM", "result": -0.101}]}
{"target": "RNF213 C3008", "values": [{"measurement": "log2 mean competition ratio", "setting": "[1]; 50 µM", "result": -0.0674}, {"measurement": "log2 mean competition ratio", "setting": "[1]; 200 µM", "result": 0.111}, {"measurement": "log2 mean competition ratio", "setting": "[2]; 50 µM", "result": -0.244}, {"measurement": "log2 mean competition ratio", "setting": "[2]; 200 µM", "result": 0.108}]}
{"target": "RND3 C125", "values": [{"measurement": "log2 mean competition ratio", "setting": "[1]; 50 µM", "result": 0.00758}, {"measurement": "log2 mean competition ratio", "setting": "[1]; 200 µM", "result": -0.447}, {"measurement": "log2 mean competition ratio", "setting": "[2]; 50 µM", "result": 0.0659}, {"measurement": "log2 mean competition ratio", "setting": "[2]; 200 µM", "result": -0.246}]}
{"target": "RTTN C1889 (UniProt Q86VV8)", "values": [{"measurement": "log2 mean competition ratio", "setting": "[1]; 50 µM", "result": 0.161}, {"measurement": "log2 mean competition ratio", "setting": "[1]; 200 µM", "result": -0.0432}, {"measurement": "log2 mean competition ratio", "setting": "[2]; 50 µM", "result": -0.104}, {"measurement": "log2 mean competition ratio", "setting": "[2]; 200 µM", "result": -0.109}]}
{"target": "RNF213 C3330", "values": [{"measurement": "log2 mean competition ratio", "setting": "[1]; 50 µM", "result": 0.203}, {"measurement": "log2 mean competition ratio", "setting": "[1]; 200 µM", "result": 0.0627}, {"measurement": "log2 mean competition ratio", "setting": "[2]; 50 µM", "result": 0.134}, {"measurement": "log2 mean competition ratio", "setting": "[2]; 200 µM", "result": 0.107}]}
{"target": "RPTOR C86 (UniProt Q8N122)", "values": [{"measurement": "log2 mean competition ratio", "setting": "[1]; 50 µM", "result": -0.0453}, {"measurement": "log2 mean competition ratio", "setting": "[1]; 200 µM", "result": -0.346}, {"measurement": "log2 mean competition ratio", "setting": "[2]; 50 µM", "result": -0.191}, {"measurement": "log2 mean competition ratio", "setting": "[2]; 200 µM", "result": 0.0293}]}
{"target": "RRP12 C673 (UniProt Q5JTH9)", "values": [{"measurement": "log2 mean competition ratio", "setting": "[1]; 50 µM", "result": 0.124}, {"measurement": "log2 mean competition ratio", "setting": "[1]; 200 µM", "result": 0.0304}, {"measurement": "log2 mean competition ratio", "setting": "[2]; 50 µM", "result": -0.0273}, {"measurement": "log2 mean competition ratio", "setting": "[2]; 200 µM", "result": 0.0424}]}
{"target": "RTCA C356 (UniProt O00442)", "values": [{"measurement": "log2 mean competition ratio", "setting": "[1]; 50 µM", "result": -0.452}, {"measurement": "log2 mean competition ratio", "setting": "[1]; 200 µM", "result": 0.0032}, {"measurement": "log2 mean competition ratio", "setting": "[2]; 50 µM", "result": -0.722}, {"measurement": "log2 mean competition ratio", "setting": "[2]; 200 µM", "result": -0.205}]}
{"target": "RPAP2 C185 (UniProt Q8IXW5)", "values": [{"measurement": "log2 mean competition ratio", "setting": "[1]; 50 µM", "result": -0.125}, {"measurement": "log2 mean competition ratio", "setting": "[1]; 200 µM", "result": 0.134}, {"measurement": "log2 mean competition ratio", "setting": "[2]; 50 µM", "result": -0.403}, {"measurement": "log2 mean competition ratio", "setting": "[2]; 200 µM", "result": -0.0587}]}
{"target": "RNF213 C3554", "values": [{"measurement": "log2 mean competition ratio", "setting": "[1]; 50 µM", "result": 0.0889}, {"measurement": "log2 mean competition ratio", "setting": "[1]; 200 µM", "result": 0.389}, {"measurement": "log2 mean competition ratio", "setting": "[2]; 50 µM", "result": -0.0869}, {"measurement": "log2 mean competition ratio", "setting": "[2]; 200 µM", "result": 0.446}]}
{"target": "RNH1_(C75,C75,C85,C85) (UniProt P13489)", "values": [{"measurement": "log2 mean competition ratio", "setting": "[1]; 50 µM", "result": 0.141}, {"measurement": "log2 mean competition ratio", "setting": "[1]; 200 µM", "result": -0.0203}, {"measurement": "log2 mean competition ratio", "setting": "[2]; 50 µM", "result": 0.279}, {"measurement": "log2 mean competition ratio", "setting": "[2]; 200 µM", "result": -0.392}]}
{"target": "RPL23 C28 (UniProt P62829)", "values": [{"measurement": "log2 mean competition ratio", "setting": "[1]; 50 µM", "result": 0.143}, {"measurement": "log2 mean competition ratio", "setting": "[1]; 200 µM", "result": 0.139}, {"measurement": "log2 mean competition ratio", "setting": "[2]; 50 µM", "result": 0.0472}, {"measurement": "log2 mean competition ratio", "setting": "[2]; 200 µM", "result": -0.0291}]}
{"target": "RNF40 C69 (UniProt O75150)", "values": [{"measurement": "log2 mean competition ratio", "setting": "[1]; 50 µM", "result": -0.234}, {"measurement": "log2 mean competition ratio", "setting": "[1]; 200 µM", "result": 0.157}, {"measurement": "log2 mean competition ratio", "setting": "[2]; 50 µM", "result": -0.0576}, {"measurement": "log2 mean competition ratio", "setting": "[2]; 200 µM", "result": 0.172}]}
{"target": "RSL1D1 C197 (UniProt O76021)", "values": [{"measurement": "log2 mean competition ratio", "setting": "[1]; 50 µM", "result": -0.158}, {"measurement": "log2 mean competition ratio", "setting": "[1]; 200 µM", "result": -0.0307}, {"measurement": "log2 mean competition ratio", "setting": "[2]; 50 µM", "result": -0.0684}, {"measurement": "log2 mean competition ratio", "setting": "[2]; 200 µM", "result": 0.075}]}
{"target": "SAAL1 C366 (UniProt Q96ER3)", "values": [{"measurement": "log2 mean competition ratio", "setting": "[1]; 50 µM", "result": -0.0564}, {"measurement": "log2 mean competition ratio", "setting": "[1]; 200 µM", "result": 0.0746}, {"measurement": "log2 mean competition ratio", "setting": "[2]; 50 µM", "result": -0.153}, {"measurement": "log2 mean competition ratio", "setting": "[2]; 200 µM", "result": 0.0883}]}
{"target": "RRBP1 C933 (UniProt Q9P2E9)", "values": [{"measurement": "log2 mean competition ratio", "setting": "[1]; 50 µM", "result": 0.143}, {"measurement": "log2 mean competition ratio", "setting": "[1]; 200 µM", "result": -0.163}, {"measurement": "log2 mean competition ratio", "setting": "[2]; 50 µM", "result": 0.00903}, {"measurement": "log2 mean competition ratio", "setting": "[2]; 200 µM", "result": -0.252}]}
{"target": "RO60 C119 (UniProt P10155)", "values": [{"measurement": "log2 mean competition ratio", "setting": "[1]; 50 µM", "result": 0.0305}, {"measurement": "log2 mean competition ratio", "setting": "[1]; 200 µM", "result": 0.128}, {"measurement": "log2 mean competition ratio", "setting": "[2]; 50 µM", "result": 0.249}, {"measurement": "log2 mean competition ratio", "setting": "[2]; 200 µM", "result": 0.153}]}
{"target": "RRM1 C662 (UniProt P23921)", "values": [{"measurement": "log2 mean competition ratio", "setting": "[1]; 50 µM", "result": -0.113}, {"measurement": "log2 mean competition ratio", "setting": "[1]; 200 µM", "result": -0.713}, {"measurement": "log2 mean competition ratio", "setting": "[2]; 50 µM", "result": 0.142}, {"measurement": "log2 mean competition ratio", "setting": "[2]; 200 µM", "result": -0.605}]}
{"target": "RNF19B C290", "values": [{"measurement": "log2 mean competition ratio", "setting": "[1]; 50 µM", "result": 0.165}, {"measurement": "log2 mean competition ratio", "setting": "[1]; 200 µM", "result": -0.0302}, {"measurement": "log2 mean competition ratio", "setting": "[2]; 50 µM", "result": -0.307}, {"measurement": "log2 mean competition ratio", "setting": "[2]; 200 µM", "result": -0.0495}]}
{"target": "RNF213 C310", "values": [{"measurement": "log2 mean competition ratio", "setting": "[1]; 50 µM", "result": -0.35}, {"measurement": "log2 mean competition ratio", "setting": "[1]; 200 µM", "result": 0.557}, {"measurement": "log2 mean competition ratio", "setting": "[2]; 50 µM", "result": -0.119}, {"measurement": "log2 mean competition ratio", "setting": "[2]; 200 µM", "result": 0.519}]}
{"target": "RUFY1 C81 (UniProt Q96T51)", "values": [{"measurement": "log2 mean competition ratio", "setting": "[1]; 50 µM", "result": 0.582}, {"measurement": "log2 mean competition ratio", "setting": "[1]; 200 µM", "result": 0.224}, {"measurement": "log2 mean competition ratio", "setting": "[2]; 50 µM", "result": 0.617}, {"measurement": "log2 mean competition ratio", "setting": "[2]; 200 µM", "result": 0.0914}]}
